PubChem BioAssay AID743454 | Peter MacCallum Cancer Centre | 2014

- Assay: 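Genes whose loss kills vorinostat-resistant colon cancer cells under vorinostat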 (primary screen)
- System: human HCT116-VR colon cancer cells, selected for vorinostat resistance
- Reagent: siRNA pool against human genes, 40 nM siRNA pool
- Time to read-out: vorinostat for 24 h, read-out about 72 h after transfection
- Conditions: vorinostat at 2.5 µM final
- Detection: 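Cell viability by CellTiter-Fluor and caspase 3/7 activity by luminescence, each scaled to mock wells per plate, duplicates averaged, then robust z-scored over all plates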
- Reading the numbers: viability robust z-score: higher = more viable cells than screen typical; caspase robust z-score: higher = more caspase 3/7 activity than screen typical
- Hit rule: 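a knock-down is a hit when classed RV1 or RV2 for lowered viability, or CA1 or CA2 for caspase activation; those lethal without drug were dropped; hits were retested singly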
The whole screen tested about 18,000 reagents; below is a part drawn at random. 450 of them (2.5%) count as active. 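Single biological run; no consistent viability z cut-off exists, so the class columns, not z-scores, define the calls.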 A number with no mark means an inactive call.

| gene symbol | viability hit class | caspase hit class | viability robust z-score | caspase robust z-score |
| --- | --- | --- | --- | --- |
| SLC6A14 | no change | no change | -0.18 | 0.57 |
| COL2A1 | no change | no change | 0.76 | 0.4 |
| UBTFL7 | no change | no change | 0.06 | -0.15 |
| RPS6KA2 | no change | no change | -2.38 | 0.02 |
| SETMAR | no change | no change | 0.98 | -0.71 |
| MAP3K4 | no change | no change | -0.39 | 0.86 |
| JAM2 | no change | no change | -0.62 | -1.09 |
| TMEM54 | no change | no change | -0.32 | 0.54 |
| CCT6A | no change | no change | -1.6 | 3.25 |
| RPL7L1 | RV2 (reduced viability) (active) | no change | -3.03 | 2.11 |
| RNF166 | no change | no change | 0.36 | 0.64 |
| HOXD9 | no change | no change | -2.29 | 0.16 |
| OR3A1 | no change | no change | 0.2 | 2.44 |
| H1-8 | no change | no change | -0.96 | -0.59 |
| PTPMT1 | no change | no change | -1.19 | -0.39 |
| DNAJA3 | no change | no change | 0.77 | -0.6 |
| PPP1R17 | no change | no change | -0.4 | -1.52 |
| NUPR1 | no change | no change | -0.08 | 2.69 |
| KCNJ9 | no change | no change | -0.62 | 4.07 |
| AMN | no change | no change | 1.05 | 2.12 |
| UBE2D3 | no change | no change | -1.59 | 3.23 |
| KAT8 | no change | no change | -0.74 | 0.44 |
| PARD6G | no change | no change | -0.98 | 0.3 |
| COLEC12 | no change | no change | 0.05 | -0.52 |
| ZSCAN26 | no change | no change | -1.64 | -0.52 |
| RNFT1 | no change | no change | 0.76 | -0.4 |
| GP9 | no change | no change | 0.57 | 0.53 |
| CSE1L | no change (active) | CA1 (caspase activation) | -2.15 | 5.29 |
| KCTD9 | no change | no change | -0.26 | -0.44 |
| ZKSCAN1 | no change | no change | 1.05 | 0.29 |
| SOX8 | no change | no change | -0.7 | 2.82 |
| G3BP2 | no change | no change | -0.18 | -0.6 |
| ZNF614 | no change | no change | 0.46 | -0.74 |
| G3BP1 | no change | no change | 1.92 | -0.32 |
| ATL2 | no change | no change | -0.36 | 1.54 |
| XRN2 | no change | no change | 0 | -0.76 |
| DIRAS3 | no change | no change | -1.12 | -0.51 |
| PTK2B | no change | no change | 0.25 | 0 |
| NDUFA7 | no change (active) | CA2 (caspase activation) | -1.78 | 5.74 |
| ZNF701 | no change | no change | -0.66 | 4.09 |
| ASCC2 | no change | no change | 0.2 | 0.04 |
| PPTC7 | no change | no change | -0.92 | -0.34 |
| GTF2B | no change | no change | 1.3 | 0 |
| NFKBIZ | no change | no change | 0.15 | 0.7 |
| MAML3 | no change | no change | -1.77 | -0.06 |
| ALAS1 | no change | no change | 0.24 | -0.72 |
| GAN | no change | no change | -0.48 | -0.48 |
| OR6F1 | no change | no change | 0.17 | 1.64 |
| SRP19 | no change | no change | -0.12 | -0.04 |
| EFCAB6 | no change | no change | 0.54 | 0.13 |
| CD1C | no change | no change | 0.97 | -0.91 |
| GLB1L3 | no change | no change | 0.26 | -0.92 |
| LCMT1 | no change | no change | -0.17 | -0.58 |
| KERA | no change | no change | -1.05 | 1.23 |
| MASP2 | RV2 (reduced viability) (active) | no change | -2.96 | 2.29 |
| GAL | no change | no change | 0.86 | 0.15 |
| RPL18A | no change | no change | -3.92 | -0.9 |
| NDUFV3 | no change | no change | 0.24 | -0.4 |
| IFNA21 | no change | no change | -1.81 | -0.74 |
| EMILIN3 | no change | no change | 0.74 | -0.61 |
| ZNF45 | no change | no change | 0.4 | 1.69 |
| MOCS1 | no change | no change | 0.6 | 1.29 |
| PLA2G4A | no change (active) | CA2 (caspase activation) | -0.78 | 5.14 |
| SFTPC | no change | no change | 0.34 | -1.12 |
| GALNT1 | no change | no change | 0.12 | -1.36 |
| SLC1A4 | no change | no change | 0.36 | -0.8 |
| ADAMTSL4 | no change | no change | 0.93 | -0.24 |
| ADAMTS2 | no change | no change | -0.42 | 0.2 |
| OR4C45 | no change | no change | -0.02 | -0.72 |
| OR5M9 | no change | no change | -1.36 | 2.27 |
| HRH3 | no change | no change | 0.44 | 2.76 |
| KIR3DL1 | no change | no change | 0.56 | -1.08 |
| SV2C | no change | no change | 0.8 | 0.11 |

Copied from the entries so far (3 entries):
| gene symbol | viability hit class | caspase hit class | viability robust z-score | caspase robust z-score |
| --- | --- | --- | --- | --- |
| ADAMTSL4 | no change | no change | 0.93 | -0.24 |
| ADAMTS2 | no change | no change | -0.42 | 0.2 |
| OR4C45 | no change | no change | -0.02 | -0.72 |
